# This is one part of the list. Most values lie at the level of the controls, where differences are scatter.
# Amino acid sequences for entries named in this document (tags omitted). A change or cut given only in a name is not applied to a line headed by its entry.
# UniProt P24527: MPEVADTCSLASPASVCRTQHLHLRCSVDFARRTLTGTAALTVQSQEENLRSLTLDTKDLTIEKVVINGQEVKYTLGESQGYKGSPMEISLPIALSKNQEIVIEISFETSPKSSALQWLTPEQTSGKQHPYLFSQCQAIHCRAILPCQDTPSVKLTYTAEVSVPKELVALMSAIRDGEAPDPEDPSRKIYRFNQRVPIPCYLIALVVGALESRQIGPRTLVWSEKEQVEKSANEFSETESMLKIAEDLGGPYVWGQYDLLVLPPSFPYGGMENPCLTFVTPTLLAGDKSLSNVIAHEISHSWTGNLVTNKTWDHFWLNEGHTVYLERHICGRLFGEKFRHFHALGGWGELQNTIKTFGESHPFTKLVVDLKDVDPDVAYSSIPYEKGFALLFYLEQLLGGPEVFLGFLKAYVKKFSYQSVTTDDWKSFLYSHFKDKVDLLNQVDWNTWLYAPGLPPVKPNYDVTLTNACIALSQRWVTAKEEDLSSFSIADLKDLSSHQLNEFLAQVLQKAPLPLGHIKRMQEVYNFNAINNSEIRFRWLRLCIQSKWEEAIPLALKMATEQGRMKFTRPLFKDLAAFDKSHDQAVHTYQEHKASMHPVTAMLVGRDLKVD
# UniProt P12791: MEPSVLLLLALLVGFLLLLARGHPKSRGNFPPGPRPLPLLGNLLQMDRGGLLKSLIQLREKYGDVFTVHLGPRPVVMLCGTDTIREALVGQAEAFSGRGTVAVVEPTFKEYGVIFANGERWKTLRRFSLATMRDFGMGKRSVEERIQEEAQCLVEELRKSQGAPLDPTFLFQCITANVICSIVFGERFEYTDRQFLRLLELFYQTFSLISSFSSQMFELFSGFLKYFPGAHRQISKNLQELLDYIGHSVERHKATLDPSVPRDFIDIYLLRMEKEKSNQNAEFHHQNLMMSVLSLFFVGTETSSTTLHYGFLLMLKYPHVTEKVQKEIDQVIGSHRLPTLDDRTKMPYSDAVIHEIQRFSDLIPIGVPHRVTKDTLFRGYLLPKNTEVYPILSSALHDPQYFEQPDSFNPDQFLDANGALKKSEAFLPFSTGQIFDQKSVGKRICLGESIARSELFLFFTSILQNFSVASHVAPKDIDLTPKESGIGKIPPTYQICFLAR
# UniProt P24472: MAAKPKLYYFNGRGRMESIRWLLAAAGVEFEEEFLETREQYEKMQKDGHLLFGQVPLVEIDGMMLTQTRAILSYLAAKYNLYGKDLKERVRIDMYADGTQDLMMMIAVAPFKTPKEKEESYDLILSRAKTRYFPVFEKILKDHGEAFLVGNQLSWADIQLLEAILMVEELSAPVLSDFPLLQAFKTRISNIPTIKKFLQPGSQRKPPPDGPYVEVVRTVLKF
# UniProt P18828: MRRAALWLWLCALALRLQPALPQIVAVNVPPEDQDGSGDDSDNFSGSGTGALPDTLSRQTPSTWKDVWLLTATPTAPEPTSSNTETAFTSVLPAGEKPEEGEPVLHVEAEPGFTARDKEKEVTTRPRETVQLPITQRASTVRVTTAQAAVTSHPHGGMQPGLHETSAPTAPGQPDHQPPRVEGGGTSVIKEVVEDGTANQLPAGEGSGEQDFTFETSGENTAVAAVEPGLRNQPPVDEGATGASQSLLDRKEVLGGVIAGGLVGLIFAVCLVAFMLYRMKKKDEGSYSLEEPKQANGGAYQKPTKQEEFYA
# UniProt P08607: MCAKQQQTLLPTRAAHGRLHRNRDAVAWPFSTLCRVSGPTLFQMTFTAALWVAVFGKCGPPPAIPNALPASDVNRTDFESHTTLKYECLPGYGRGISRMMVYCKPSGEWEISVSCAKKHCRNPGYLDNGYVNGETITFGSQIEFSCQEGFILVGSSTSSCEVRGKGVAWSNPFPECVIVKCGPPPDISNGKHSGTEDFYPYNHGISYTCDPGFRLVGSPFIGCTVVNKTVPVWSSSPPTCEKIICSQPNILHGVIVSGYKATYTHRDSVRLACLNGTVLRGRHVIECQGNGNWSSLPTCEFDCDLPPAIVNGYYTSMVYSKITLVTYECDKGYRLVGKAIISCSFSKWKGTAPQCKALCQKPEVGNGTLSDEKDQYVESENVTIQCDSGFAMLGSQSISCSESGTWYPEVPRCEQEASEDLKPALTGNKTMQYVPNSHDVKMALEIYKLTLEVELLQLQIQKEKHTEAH
# UniProt P19639: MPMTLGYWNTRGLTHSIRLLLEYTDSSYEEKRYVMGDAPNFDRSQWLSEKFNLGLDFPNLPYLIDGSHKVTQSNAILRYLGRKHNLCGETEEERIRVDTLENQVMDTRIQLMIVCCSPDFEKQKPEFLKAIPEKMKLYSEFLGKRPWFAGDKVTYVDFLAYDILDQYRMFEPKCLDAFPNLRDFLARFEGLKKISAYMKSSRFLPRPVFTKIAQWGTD
# UniProt P03911, whole entry: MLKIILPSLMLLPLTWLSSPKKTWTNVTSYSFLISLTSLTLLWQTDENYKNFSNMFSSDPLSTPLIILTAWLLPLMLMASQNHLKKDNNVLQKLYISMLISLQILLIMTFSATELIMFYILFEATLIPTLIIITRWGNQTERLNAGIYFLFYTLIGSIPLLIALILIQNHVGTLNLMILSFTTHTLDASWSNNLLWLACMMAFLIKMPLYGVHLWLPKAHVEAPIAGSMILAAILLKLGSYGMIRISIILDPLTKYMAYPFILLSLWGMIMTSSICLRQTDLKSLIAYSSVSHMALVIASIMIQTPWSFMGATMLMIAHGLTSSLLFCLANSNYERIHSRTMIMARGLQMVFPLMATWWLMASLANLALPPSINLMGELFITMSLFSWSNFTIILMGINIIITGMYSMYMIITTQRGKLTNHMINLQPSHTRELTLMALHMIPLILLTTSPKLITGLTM
# UniProt P26187: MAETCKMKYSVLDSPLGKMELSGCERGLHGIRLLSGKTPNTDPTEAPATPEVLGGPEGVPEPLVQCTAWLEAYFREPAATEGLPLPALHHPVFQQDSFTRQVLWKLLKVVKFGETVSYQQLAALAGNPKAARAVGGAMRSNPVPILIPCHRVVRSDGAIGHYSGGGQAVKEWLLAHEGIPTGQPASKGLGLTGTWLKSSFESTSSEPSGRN
# UniProt P13597, whole entry: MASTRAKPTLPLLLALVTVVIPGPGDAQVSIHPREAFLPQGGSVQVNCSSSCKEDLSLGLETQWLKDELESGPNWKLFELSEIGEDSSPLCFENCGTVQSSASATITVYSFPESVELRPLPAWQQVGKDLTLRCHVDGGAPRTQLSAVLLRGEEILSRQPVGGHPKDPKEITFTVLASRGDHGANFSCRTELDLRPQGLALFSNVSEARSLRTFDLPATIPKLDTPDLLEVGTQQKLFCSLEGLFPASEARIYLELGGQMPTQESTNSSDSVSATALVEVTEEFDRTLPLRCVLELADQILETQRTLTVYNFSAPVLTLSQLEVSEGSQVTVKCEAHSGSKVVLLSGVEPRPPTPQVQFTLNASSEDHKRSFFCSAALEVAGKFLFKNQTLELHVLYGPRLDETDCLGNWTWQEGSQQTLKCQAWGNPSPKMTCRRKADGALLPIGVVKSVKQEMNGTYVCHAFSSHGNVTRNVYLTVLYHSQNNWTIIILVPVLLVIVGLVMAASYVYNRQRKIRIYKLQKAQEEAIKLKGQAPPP
# UniProt P16056: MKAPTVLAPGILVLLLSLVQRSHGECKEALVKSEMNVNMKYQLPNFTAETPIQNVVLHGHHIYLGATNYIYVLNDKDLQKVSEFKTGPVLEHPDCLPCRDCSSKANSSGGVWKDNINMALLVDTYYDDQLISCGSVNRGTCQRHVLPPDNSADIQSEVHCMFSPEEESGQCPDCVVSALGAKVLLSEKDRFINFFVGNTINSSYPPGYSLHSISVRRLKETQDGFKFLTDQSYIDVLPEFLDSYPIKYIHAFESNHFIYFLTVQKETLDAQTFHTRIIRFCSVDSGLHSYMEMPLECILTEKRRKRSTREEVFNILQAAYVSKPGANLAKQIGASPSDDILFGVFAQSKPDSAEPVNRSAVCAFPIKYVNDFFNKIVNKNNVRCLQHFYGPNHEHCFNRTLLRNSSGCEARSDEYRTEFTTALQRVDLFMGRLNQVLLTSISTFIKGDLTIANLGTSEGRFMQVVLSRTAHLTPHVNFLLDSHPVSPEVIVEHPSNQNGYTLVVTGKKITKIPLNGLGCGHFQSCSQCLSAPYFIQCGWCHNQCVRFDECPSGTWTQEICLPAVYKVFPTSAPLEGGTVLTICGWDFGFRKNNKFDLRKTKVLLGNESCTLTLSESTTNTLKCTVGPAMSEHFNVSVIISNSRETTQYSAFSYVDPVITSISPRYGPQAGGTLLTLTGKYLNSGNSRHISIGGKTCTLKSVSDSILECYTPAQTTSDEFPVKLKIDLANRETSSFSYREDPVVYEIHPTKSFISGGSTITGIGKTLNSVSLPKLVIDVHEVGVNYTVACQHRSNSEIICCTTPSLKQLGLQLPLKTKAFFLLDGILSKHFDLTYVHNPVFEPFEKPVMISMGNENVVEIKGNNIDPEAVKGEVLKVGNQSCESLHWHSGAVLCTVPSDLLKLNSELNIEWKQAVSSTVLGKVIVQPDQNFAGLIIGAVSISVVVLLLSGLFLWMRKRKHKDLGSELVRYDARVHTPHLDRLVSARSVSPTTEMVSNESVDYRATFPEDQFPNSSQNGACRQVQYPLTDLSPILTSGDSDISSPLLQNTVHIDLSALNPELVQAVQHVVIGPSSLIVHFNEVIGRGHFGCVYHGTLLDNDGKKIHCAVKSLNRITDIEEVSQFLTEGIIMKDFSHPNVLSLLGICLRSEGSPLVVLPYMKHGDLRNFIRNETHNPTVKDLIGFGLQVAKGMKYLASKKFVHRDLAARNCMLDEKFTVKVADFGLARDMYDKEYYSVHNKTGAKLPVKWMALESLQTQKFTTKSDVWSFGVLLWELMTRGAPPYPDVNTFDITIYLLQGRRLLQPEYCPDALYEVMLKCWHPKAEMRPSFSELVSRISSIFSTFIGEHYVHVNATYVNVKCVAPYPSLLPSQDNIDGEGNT
# UniProt P17742, whole entry: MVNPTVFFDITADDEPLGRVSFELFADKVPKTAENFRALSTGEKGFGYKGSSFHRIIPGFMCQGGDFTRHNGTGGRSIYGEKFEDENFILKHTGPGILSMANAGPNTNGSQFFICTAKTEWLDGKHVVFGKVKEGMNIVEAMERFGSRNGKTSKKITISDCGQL
# UniProt P16045, whole entry: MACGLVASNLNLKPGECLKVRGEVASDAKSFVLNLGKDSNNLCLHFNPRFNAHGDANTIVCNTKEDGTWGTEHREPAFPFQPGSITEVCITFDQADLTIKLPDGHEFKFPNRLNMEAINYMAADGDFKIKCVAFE
# UniProt P08207, whole entry: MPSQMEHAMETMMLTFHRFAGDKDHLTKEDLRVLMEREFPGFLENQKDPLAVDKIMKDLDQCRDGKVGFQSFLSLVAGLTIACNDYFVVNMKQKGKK
# UniProt P11438: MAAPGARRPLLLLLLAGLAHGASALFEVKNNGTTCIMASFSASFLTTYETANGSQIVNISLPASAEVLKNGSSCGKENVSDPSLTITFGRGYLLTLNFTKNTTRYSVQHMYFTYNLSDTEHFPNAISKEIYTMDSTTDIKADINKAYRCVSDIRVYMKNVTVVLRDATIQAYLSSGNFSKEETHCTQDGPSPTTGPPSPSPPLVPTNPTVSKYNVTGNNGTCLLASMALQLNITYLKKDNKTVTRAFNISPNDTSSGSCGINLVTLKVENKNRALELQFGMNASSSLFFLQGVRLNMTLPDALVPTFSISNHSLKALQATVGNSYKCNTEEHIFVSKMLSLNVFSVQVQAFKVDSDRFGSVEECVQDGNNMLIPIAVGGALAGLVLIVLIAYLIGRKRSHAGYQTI
# UniProt P28063: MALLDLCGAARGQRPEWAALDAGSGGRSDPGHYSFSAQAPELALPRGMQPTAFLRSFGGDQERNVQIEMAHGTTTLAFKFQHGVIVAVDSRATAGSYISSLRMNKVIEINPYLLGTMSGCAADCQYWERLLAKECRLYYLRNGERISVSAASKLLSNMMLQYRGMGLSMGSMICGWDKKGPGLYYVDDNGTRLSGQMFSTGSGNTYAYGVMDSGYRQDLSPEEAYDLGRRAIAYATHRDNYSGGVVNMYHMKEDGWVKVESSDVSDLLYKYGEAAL
# UniProt P26041, whole entry: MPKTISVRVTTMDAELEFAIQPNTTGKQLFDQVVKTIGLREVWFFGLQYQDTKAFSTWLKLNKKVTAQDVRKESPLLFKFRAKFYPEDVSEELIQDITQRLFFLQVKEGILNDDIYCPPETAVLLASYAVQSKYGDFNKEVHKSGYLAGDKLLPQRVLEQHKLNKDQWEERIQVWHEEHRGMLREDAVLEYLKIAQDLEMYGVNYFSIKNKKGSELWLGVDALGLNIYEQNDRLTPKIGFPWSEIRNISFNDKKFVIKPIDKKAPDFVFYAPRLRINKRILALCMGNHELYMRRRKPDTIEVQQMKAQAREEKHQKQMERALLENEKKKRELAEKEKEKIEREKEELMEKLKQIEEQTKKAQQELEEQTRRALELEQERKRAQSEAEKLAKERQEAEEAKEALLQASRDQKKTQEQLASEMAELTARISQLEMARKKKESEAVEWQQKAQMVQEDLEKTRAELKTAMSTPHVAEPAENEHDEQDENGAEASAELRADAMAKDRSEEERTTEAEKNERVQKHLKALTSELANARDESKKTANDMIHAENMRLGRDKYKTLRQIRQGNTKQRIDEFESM
# Compound: CN[C@@H]1C[C@H]2O[C@@](C)([C@@H]1OC)n1c3ccccc3c3c4c(c5c6ccccc6n2c5c31)C(=O)NC4 [staurosporine]
# Test: log2 fold change of pooled soluble protein (PISA), ligand vs vehicle (log2 ratio); higher = more thermally stabilized
# Conditions: ligand concentration: 20 uM; assay format: PISA pool 52.9/55.5/58.6 C
row,Target,log2 fold change of pooled soluble protein
1,UniProt P24527,-0.0254
2,UniProt P26369,-0.0481
3,UniProt P12791,0.0653
4,UniProt P12246,-0.0277
5,UniProt P24472,-0.0801
6,UniProt P18828,-0.152
7,UniProt P08607,0.0501
8,UniProt P19639,-0.184
9,UniProt P03911,0.053
10,UniProt P0DN89,-0.0326
11,UniProt P14069,0.225
12,UniProt P14869,0.0222
13,UniProt P10833,0.0148
14,UniProt P11352,0.0885
15,UniProt P26187,-0.137
16,UniProt P04441,0.0456
17,UniProt P13597,-0.00163
18,UniProt P28076,-0.0224
19,UniProt P24452,-0.0667

row,Target,log2 fold change of pooled soluble protein
1,UniProt P16056,-0.0411
2,UniProt P17742,-0.104
3,UniProt P06330,-0.00441
4,UniProt P22361,-0.259
5,UniProt P20065,0.0671
6,UniProt P06801,0.0181
7,UniProt P04117,0.00991
8,UniProt P16045,0.0512
9,UniProt P24456,0.175
10,UniProt P10852,0.00636
11,UniProt P21619,0.0565
12,UniProt P08207,-0.183
13,UniProt P11438,0.0507
14,UniProt P11031,-0.0575
15,UniProt P28063,-0.179
16,UniProt P20152,-0.0523
17,UniProt P26041,0.00136
18,UniProt P20357,0.0888

# Exported with bars between the fields: entries from further up
row | Target | log2 fold change of pooled soluble protein
5 | UniProt P24472 | -0.0801
9 | UniProt P24456 | 0.175

# Source: the supplement of paper PMC12819154, “High-throughput peptide-centric local stability assay extends protein–ligand identification to membrane proteins, tissues and bacteria” (Nature Structural & Molecular Biology, 2025)
